Source: US4156427A, “Injectable male animal sterilant for selectively controlling the function of testes” (priority 1977, dated 1979)

Columns and labels:
[1] = test system: male reproduction of sexually mature rats; details: rat, oral, per 1 g liver
[2] = test system: male reproduction of sexually mature rats; details: rat, i.p., per 1 g liver

`O=S(=O)([O-])[O-].[Zn+2]` [zinc sulfate] was tested, and the “μM PCA 1 g liver” value ([1]; 15 mg ZnSO4.7H2 O daily 30 days) was 2.23 ± 0.26 µM, the “μM PCA 1 g liver” value ([1]; 50 mg ZnSO4.7H2 O daily 30 days) was 2.63 ± 0.22 µM and the “μM PCA 1 g liver” value ([2]; 0.5 mg ZnSO4.7H2 O daily 30 days) was 1.86 ± 0.24 µM. The “μM PCA 1 g liver” value ([2]; 1.0 mg ZnSO4.7H2 O daily 30 days) was 1.62 ± 0.12 µM and the “μM PCA 1 g liver” value ([2]; 5.0 mg ZnSO4.7H2 O daily 30 days) was 1.17 ± 0.06 µM.

Where two headings read alike, the source gives them in different places.
